PubChem BioAssay AID1671190 (National Center for Advancing Translational Sciences (NCATS), 2021)
Out of some 580,000 compounds screened, about 6,100 (1.1%) were called active. Inconclusive results, whose numbers are uncertain, are shown with a selection of clear calls. Calls follow the shape of the dose curve; as a rule, active = well fitted inhibition curve with a large enough effect; inconclusive = small, poorly fitted or top-dose-only effect, or another doubt; inactive = no such curve, though single readings can be large or run the other way. Potencies beside an inconclusive call are fits to weak or partial responses and may not hold up.

Sequences of proteins named here, by UniProt entry; tags and fusion partners are left off. A change or cut given only in a name is not applied to a line headed by its entry.
UniProt P18054: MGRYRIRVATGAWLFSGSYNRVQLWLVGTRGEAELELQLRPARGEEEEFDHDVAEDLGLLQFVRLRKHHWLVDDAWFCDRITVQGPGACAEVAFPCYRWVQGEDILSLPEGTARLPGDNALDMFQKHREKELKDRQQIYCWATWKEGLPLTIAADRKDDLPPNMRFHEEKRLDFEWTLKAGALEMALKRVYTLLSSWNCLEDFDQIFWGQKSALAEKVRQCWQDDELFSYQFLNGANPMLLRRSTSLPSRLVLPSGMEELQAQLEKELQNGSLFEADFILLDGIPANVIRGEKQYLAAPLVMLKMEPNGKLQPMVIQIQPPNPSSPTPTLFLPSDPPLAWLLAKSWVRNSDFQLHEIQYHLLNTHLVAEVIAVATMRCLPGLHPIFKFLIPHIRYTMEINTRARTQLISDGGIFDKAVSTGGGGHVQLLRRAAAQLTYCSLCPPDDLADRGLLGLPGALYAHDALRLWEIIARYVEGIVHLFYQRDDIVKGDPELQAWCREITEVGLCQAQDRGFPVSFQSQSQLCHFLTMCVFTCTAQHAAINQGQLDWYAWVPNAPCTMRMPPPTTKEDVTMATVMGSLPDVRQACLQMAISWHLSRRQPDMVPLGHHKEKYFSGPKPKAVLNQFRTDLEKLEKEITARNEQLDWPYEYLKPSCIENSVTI

target: Polyunsaturated fatty acid lipoxygenase ALOX12 (Homo sapiens) (UniProt P18054); assay: Primary qHTS assay for inhibitors of human arachidonate 12S-lipoxygenase (ALOX12): Round 2; details: purified 12hLO, xylenol orange hydroperoxide absorbance; activity change, negative = inhibition: at 108 µM (top of the series) unless noted
How it was run: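 Hydroperoxide product was detected by ferrous iron/xylenol orange as the 573 to 405 nm absorbance ratio. Arachidonic acid at 40 uM (final) was turned over for 30 min at room temperature by 150 nM human 12hLO, pH 7.0 Hepes buffer, after 15 min compound preincubation.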
% is scaled to controls: 0 for no effect and ±100 for the full control effect; potency is read from the fitted curve at half-maximal effect.

Question: For CCOC(=O)C1CCN(C(c2ccc(SC)cc2)c2c(O)cc(C)n(Cc3ccco3)c2=O)CC1 (centres undefined), which Potency is on record?
Answer: Its Potency is inconclusive: 70.8 µM [inhibitor, single point].

Question: For CN1C(=O)c2cccn2CC1CNS(=O)(=O)Cc1ccccc1 (centres undefined), which “activity change, negative = inhibition” value is on record?
Answer: Its value is inactive: 10.1%.

Question: For CCCCN1CCc2c(c3ccccc3n2Cc2ccccc2)C1, which “activity change, negative = inhibition” value is on record?
Answer: The value was inactive: 10.1%.

Question: Which Potency does the source give for CCCCCC(=O)O/N=C(\C)c1ccn(S(=O)(=O)c2ccccc2)c1 here?
Answer: The Potency was inconclusive: 31.6 µM [inhibitor, partial curve, poor fit].

Question: How did the Potency turn out when CN(CCc1ccccc1)C(CCc1ccccc1)C(=O)Nc1ccc2c(c1)OCCO2 (centres undefined) was run?
Answer: The Potency was inconclusive: 44.7 µM [inhibitor, partial curve, poor fit].

Question: COc1ccc(C2(c3ccc(OC)cc3)C=Cc3c(c(OC)cc4ccccc34)O2)cc1 was tested. Which Potency did it give?
Answer: Its Potency is inconclusive: 100 µM [inhibitor, single point].

Question: With N#CC1=C(N)OC2=C(C(=O)CC(c3ccccc3)C2)C1C1CCCCC1 (centres undefined) as the molecule, how does the Potency read?
Answer: The Potency was inconclusive: 15.8 µM [inhibitor, partial curve, poor fit].

Question: How did the Potency turn out when COc1ccccc1CNc1nc(NCc2ccccc2SC)c2sccc2n1 was run?
Answer: The Potency was inconclusive: 79.4 µM [inhibitor, partial curve, poor fit].

Question: With CN(CCN(C)C1CCCCC1)C(=O)c1cc2ccccc2oc1=O as the molecule, how does the Potency read?
Answer: The Potency was inconclusive: 126 µM [inhibitor, single point].

Question: With Cc1cc(C)n(-c2cc(C(=O)O)cc(C(=O)O)c2)n1 as the molecule, how does the Potency read?
Answer: Its Potency is inconclusive: 126 µM [inhibitor, single point].

Question: CCCN1Cc2cccc(C(=O)NC(CC(=O)OCC)c3ccc(C)cc3)c2C1=O (centres undefined) was tested. Which “activity change, negative = inhibition” value did it give?
Answer: Its value is inactive: -11.2%.

Question: N#Cc1ccc(-c2nc3c(Cl)cc(C(F)(F)F)cn3c2Cc2ccsc2)cc1 was tested. Which Potency did it give?
Answer: Its Potency is inconclusive: 44.7 µM [inhibitor, partial curve, poor fit].

Question: COc1ccc(-c2ccc(C(=O)NCc3ccc(N4CCN(C)CC4)cc3)c3occc23)c(C)c1 was tested. Which Potency did it give?
Answer: Its Potency is inconclusive: 44.7 µM [inhibitor, partial curve, poor fit].

Question: Which Potency does the source give for CCCC(=O)N(Cc1cc(=O)[nH]c2ccccc12)c1ccc(OC)cc1 here?
Answer: Its Potency is inconclusive: 79.4 µM [inhibitor, partial curve, poor fit].

Question: How did the Potency turn out when Cc1ccc(OCC(=O)Nc2sc3c(c2C(N)=O)CCCC3)c(C(C)(C)C)c1 was run?
Answer: The Potency was inconclusive: 89.1 µM [inhibitor, partial curve, poor fit].

Question: For COc1ccccc1NC(=O)c1ncoc1-c1ccco1, which Potency is on record?
Answer: The Potency was “inactive”.

Question: Cc1ccc(CNc2ccc3nnc(C4CCC4)n3n2)o1 was tested. Which “activity change, negative = inhibition” value did it give?
Answer: The value was inactive: 13.8%.

Question: Which Potency does the source give for CN(C(=O)CN1C(=O)C2C3CC(C(Br)C3Br)C2C1=O)C1CCCCC1 (centres undefined) here?
Answer: Its Potency is inconclusive: 0.501 µM [inhibitor, full curve, poor fit].

Question: With Cc1ccc(C)c2[nH]c(=O)c(CN(Cc3ccc4c(c3)OCO4)Cc3nnnn3Cc3ccco3)cc12 as the molecule, how does the Potency read?
Answer: The Potency was inconclusive: 7.08 µM [inhibitor, partial curve, poor fit].

Question: How did the Potency turn out when Cc1csc2nc(COC(=O)c3ccc(NC(=O)C(C)C)cc3)cc(=O)n12 was run?
Answer: The Potency was inconclusive: 50.1 µM [inhibitor, partial curve].

Question: COc1cccc(/C=N/NC(=O)C(=O)NCc2cccnc2)c1OC was tested. Which “activity change, negative = inhibition” value did it give?
Answer: The value was inactive: 0%.

Question: With CCOC(=O)[C@]12CCC=C1N(Cc1ccccc1)C(=O)[C@H](CC(=O)NCC1CCCCC1)C2 as the molecule, how does the Potency read?
Answer: Its Potency is inconclusive: 70.8 µM [inhibitor, partial curve, poor fit].

Question: How did the Potency turn out when O=C(N/N=C/c1cc(Br)c(O)c(Br)c1O)c1cccnc1 was run?
Answer: Its Potency is inconclusive: 50.1 µM [inhibitor, partial curve, poor fit].

Question: With COCCn1c(=O)c(-c2cccs2)nc2cnc(N3CCNCC3)nc21 as the molecule, how does the Potency read?
Answer: The Potency was inconclusive: 5.62 µM [inhibitor, full curve, poor fit].

Question: With COc1ccc(NC(=O)c2ccc(COCC(F)(F)C(F)F)cc2)cc1OC as the molecule, how does the “activity change, negative = inhibition” value read?
Answer: Its value is inactive: -13.2%.

Question: CC(C)(C)CC(C)(C)NC(=S)Nc1ccc(S(=O)(=O)N2CCOCC2)cc1 was tested. Which Potency did it give?
Answer: Its Potency is inconclusive: 39.8 µM [inhibitor, partial curve, poor fit].

Question: Which “activity change, negative = inhibition” value does the source give for COc1cccc(N/C=C/C(=O)c2ccc(C)cc2)c1 here?
Answer: The value was inactive: 0%.

Question: With Cn1c(C(=O)OC(C(=O)NC2CCCCC2)c2ccncc2)cc2sccc21 (centres undefined) as the molecule, how does the Potency read?
Answer: Its Potency is inconclusive: 63.1 µM [inhibitor, partial curve, poor fit].

Question: How did the Potency turn out when C/C(=N\NS(=O)(=O)c1ccc([N+](=O)[O-])cc1)c1c[nH]c2ccccc12 was run?
Answer: The Potency was inconclusive: 44.7 µM [inhibitor, partial curve, poor fit].

Question: CCCCN(C(=O)CSc1nnc(-c2ccc(Cl)cc2)o1)c1c(N)n(CC(C)C)c(=O)[nH]c1=O was tested. Which Potency did it give?
Answer: The Potency was inconclusive: 112 µM [inhibitor, single point].

Question: For COc1cccc(Nc2nc(-c3ccc(CC(=O)N4CCOCC4)s3)cs2)c1, which Potency is on record?
Answer: Its Potency is inconclusive: 50.1 µM [inhibitor, partial curve, poor fit].

Question: Which Potency does the source give for CCc1nnc(NC(=O)CN2CCCC(C)C2)s1 (centres undefined) here?
Answer: Its Potency is inconclusive: 7.94 µM [inhibitor, partial curve, poor fit].

Question: With CCOc1cc(/C=N/N=C(N)N)ccc1OCc1ccc(Cl)cc1 as the molecule, how does the Potency read?
Answer: The Potency was inconclusive: 50.1 µM [inhibitor, partial curve, poor fit].

Question: Cc1ccc(C(=O)Nc2ccc(Br)cc2)cc1S(=O)(=O)NCc1ccccc1 was tested. Which Potency did it give?
Answer: The Potency was inconclusive: 22.4 µM [inhibitor, full curve, poor fit].

Question: CC(=O)Nc1ccc2c(c1)-c1ccc(F)cc1C2 was tested. Which Potency did it give?
Answer: Its Potency is inconclusive: 35.5 µM [inhibitor, partial curve, poor fit].

Question: O=C(CN1CCN(Cc2ccccc2)CC1)Nc1ccc(Br)cc1 was tested. Which “activity change, negative = inhibition” value did it give?
Answer: Its value is inactive: 58.5%.

Question: Which Potency does the source give for Cc1cccn2c(NCc3ccc4c(c3)OCO4)c(-c3ccc(O)cc3)nc12 here?
Answer: The Potency was inconclusive: 50.1 µM [inhibitor, partial curve, poor fit].

Question: With O=C(NC(=S)Nc1sc2c(c1C(=O)O)CCCC2)c1ccccc1 as the molecule, how does the Potency read?
Answer: The Potency was inconclusive: 15.8 µM [inhibitor, full curve, poor fit].

Question: How did the Potency turn out when COC(=O)C[C@@H]1C[C@@H]2c3cc(NS(=O)(=O)c4ccccc4)ccc3O[C@@H]2[C@@H](CO)O1 was run?
Answer: Its Potency is inconclusive: 31.6 µM [inhibitor, partial curve, poor fit].
